Earlier results, collected in patent publication US5684147A, “Therapeutic anti-HIV anti-viral oligonucleotides and pharmaceutical formulations thereof” (Hybridon, Inc., priority 1994, dated 1997).
At least one structure is not confirmed: it was looked up by name or label, or the drawing left a doubt.

Tested on: HIV-1 reverse transcriptase (RT) activity in chronically infected CEM cells
Conditions: chronically infected human T lymphocytes such as CEM; general statement without data; cited from earlier work

In the case of `O=c1[nH]cnc2c1ncn2[C@H]1CC[C@@H](CO)O1` [ddI, dideoxyinosine], the “inhibition of HIV replication in chronically infected cells (in words)” value is given as “do not inhibit HIV replication”.
